# Article PMC7862700
# By UniProt entry, the sequences of proteins in these tests, tags left out. Where a name states a change or a piece, a line headed by the entry shows the natural chain unless it says otherwise.
# UniProt O43186: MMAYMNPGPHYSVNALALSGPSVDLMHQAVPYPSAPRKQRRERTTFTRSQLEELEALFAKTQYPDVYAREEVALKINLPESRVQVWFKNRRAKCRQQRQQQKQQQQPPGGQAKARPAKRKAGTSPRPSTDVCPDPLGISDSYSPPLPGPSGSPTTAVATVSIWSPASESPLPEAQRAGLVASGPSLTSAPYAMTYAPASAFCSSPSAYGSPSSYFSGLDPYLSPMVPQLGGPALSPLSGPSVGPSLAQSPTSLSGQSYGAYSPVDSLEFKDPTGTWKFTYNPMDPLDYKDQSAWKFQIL
# The list shows a part of the results, in another mix than the full data. At the low end of the ranking the order means little.
# Molecular target: CRX (UniProt O43186)
# Experiment: DAPPL (digital affinity profiling via proximity ligation, sequencing)
# Conditions: 10 mM Tris-HCl pH 7.5, 50 mM NaCl, 1 mM DTT, 4% glycerol, room temperature, 30 min; GST-TFs on glutathione beads, 16-mer random dsDNA library, 0.1% …; high values mean tight binding; double strand, one strand shown; scale: fold enrichment (6-mer frequency, TF over GST control)
row,Sequence,binding signal
1,AAAAAC,1.16
2,AACGAT,1.38
3,ACGTAC,0.928
4,TTCCAT,1.43
5,CTGTTG,0.937
6,GCCGCT,1.02
7,GTTTCT,1.15
8,GTATGG,0.783
9,ACTCAC,0.973
10,TACAAT,1.44
11,GGTAAA,1.07
12,AAGATG,1.27
13,TGGCAC,0.915
14,GCTCAT,1.35
15,CATGGT,0.887
16,ACACAT,0.945
17,ATGCCA,0.887
18,GGCTAC,0.889
19,ATGCCT,1.28
20,CTATGT,0.924

# As a short view, some entries already given:
row,Sequence,binding signal
2,AACGAT,1.38
3,ACGTAC,0.928

# More records follow.

row,Sequence,binding signal
1,ATGATG,1.21
2,ACCGCA,1.01
3,CCGAAT,1.33
4,GTATAA,1.41
5,GCAACC,0.689
6,AGGACC,0.809
7,AAGGGC,0.952
8,TATCTG,1.46
9,CAGCCC,0.879
10,AGCGCT,1.01
11,ACCCGA,1.1
12,CCGTCT,1.26
13,GAAACC,0.648
14,ACTGTA,0.927
15,TATAGA,1.45
16,CACTGC,0.975
17,GTTACT,1.03
18,AAATAC,1.46
19,TGACGC,0.995
